Patent US20240376222A1

Experiments:
[1] = molecular target: cynomolgus TfR extracellular domain (ECD) (cynomolgus); experiment: Octet BLI, IgG1 on Protein A biosensors
[2] = molecular target: cynomolgus TfR extracellular domain (ECD) (cynomolgus); experiment: BLI (Octet), 5B6 loaded on sensor, CynoTfR at 400 to 3.13 nM
[3] = molecular target: cynomolgus TfR extracellular domain (ECD) (cynomolgus); experiment: phage ELISA, scFv phage on coated TfR, anti-M13-HRP, single point
[4] = molecular target: cynomolgus TfR extracellular domain (ECD) (cynomolgus); experiment: BLI (Octet), IgG1 30 ug/mL on Protein A sensor, 200 nM antigen, maximum association signal
[5] = molecular target: cynomolgus TfR extracellular domain (ECD) (cynomolgus); experiment: BLI (Octet), 4G1 loaded on sensor, CynoTfR at 400 to 3.13 nM

Measured: binding

B1: 5B6 (antibody, V domains shown)
VH: PVLLVQSGAEVKKPGSSVKVSCKASGGTFSSYAISWVRQAPGQGLEWMGGIIPIFGTANYAQKFQGRVTITADESTSTAYMELSSLRSEDTAVYYCAVSIFGVVIPLDYWGQGTLVIVSS
VL: QPVLTQSPSVSLAPGQTAKITCGGTNIGRKSVHWYQQKPGQAPVMVIYYDSDRPSGIPERFAGSNSGNTATLTISRVEAGDEAVYYCQVWDSSSASGVFGGGTKVTVL
binds: [1] | [2] | [3] | [4]

B2: 7B10 (antibody, V domains shown)
VH: QVQLVQSGAEVKKPGASVKVSCKASGYTFTSYGISWVRQAPGQGLEWMGWISAYNGNTNYAQKLQGRVTMTTDTSTSTAYMELRSLRSDDTAVYYCARDQKLLHILYYYGMDVWGQGTTVIVSS
VL: DIVMTQSPLSLSVTPGEPASISCRSSQSLLHSNGNNYLDWYLQKPGQSPQLLIYLGSNRASGVPDRFSGSGSGTDFSLKINKVEAEDVGVYYCMQALQTAYTFGQGTKLEIK
binds: [1] | [3] | [4]

B3: 8A5 (antibody, V domains shown)
VH: QVQLVQSGAEVKKPGESLRISCKGSGYSFTSYWISWVRQMPGKGLEWMGRIDPSDSYTNYSPSFQGHVTISADKSISTAYLQWSSLKASDTAIYYCARARTWFDAFDIWGQGTTVTVSS
VL: QAVVTQPPSASGTPGQRVTISCSGGSSNIGRYSVNWYQQLPGTAPKLLINSNIQRPSGVPDRFSGSKSGTSASLAISGLQSEDEADYHCAAWDDSLKGWVFGGGTKVTVL
binds: [1] | [3] | [4]

B4: 8G5 (antibody, V domains shown)
VH: QVQLVQSGAEVKKPGASVKVSCKASGYTFTSYGISWVRQAPGQGLEWMGWISAYNGNTNYAQKLQGRVTMTTDTSTSTAYMELRSLRSDDTAVYYCARVGYYYYGMDVWGQGTTVTVSS
VL: QSVLTQPPSVSGAPGQRVTISCTGSSSNIGAGFDVHWYQQLPGTAPKLLIYANSNRPSGVPDRFSASKSGTSASLAITGLQAEDEADYYCQSYDRSLSGYVFGSGTKVTVL
binds: [1] | [3] | [4]

B5: 1B2 (antibody, V domains shown)
VH: QVQLVQSGAEVKKPGESLRISCKGSGYSFTSYWISWVRQMPGKGLEWMGRIDPSDSYTNYSPSFQGHVTISADKSISTAYLQWSSLKASDTAMYYCARHPLAYCGGDCQRGFDYWGQGTLVTVSS
VL: QPVLTQPPSVSVSPGQTARITCSGDKLREDLTSWYQQKPGQSPVLVIYQDSKRPSGIPARFSGSISGSTATLTISGTQAVDEADYYCQAWDNSVDYVFGTGTKVTVL
binds: [1] | [3] | [4]

B6: 1C8 (antibody, V domains shown)
VH: QVQLVQSGAEVKKPGSSMKVSCKASGGTFSSYAISWVRQAPGQGLEWMGGIIPIFGTAKYAQKFQGRVTITADESTTTAYMELSSLSSEDTAVYYCARSLGWYYAFDIWGQGTMVTVSS
VL: DIVMTQSPSTLSASVGDRVTITCRASQNINNWLAWYQQKPGKAPKLLIYKASTAESGVPSRFSGSGFGTEFTLTISSLQPDDFASYYCQQYKNYPYSNLYTFGQGTKVDIK
binds: [1] | [3] | [4]

B7: 3H8 (antibody, V domains shown)
VH: QVQLVQSGAEVKKPGESLRISCKGSGYSFTSYWISWVRQMPGKGLEWMGRIDPSDSYTNYSPSFQGHVTISADKSISTAYLQWSSLKASDTAMYYCARHPPRSTRGDYGMDVWGQGTMVTVSS
VL: QAVVTQPPSVSGTPGQRVTISCSGSNSNIGSYIVNWYQQLPGTAPKLLIWGNDRRPSGVPDRVSASKSGTSASLAISGLQSEDEGDYYCAAWDNILNNYVFGPGTQLTVL
binds: [1] | [3] | [4]

B8: 4G1 (antibody, V domains shown)
VH: EVQLLESGGGLIQPGGSLRLSCAASGFSVSSYYMNWVRQAPGKGLEWVSNTYTDGSTSYADSVGGRFSVSRDNSKNTLHLQMNSLRVEDTAVYYCAREGDGYNSGGLDYWGQGTLVTVSS
VL: DIQLTQSPASLSASLGDRVTITCRASQSIGTYLNWYQQRPGQAPKLLIFGTSSLQSGVPSRFSGSGSGTDFTLTISSLQPEDLATYYCQQTYITPRTFGQGTKVEIK
binds: [1] | [5] | [3] | [4]

Results are given in words; binding and its absence hold for the method and conditions named. Binding calls can cover weak binding; strength is not graded here.
